Assay results from the supplement of paper PMC8728848.
Some of the results follow.

Columns and labels:
Assay in all cases: glycan array binding signal (z-score within array); higher = stronger binding
Conditions in all cases: glycan notation: IUPAC condensed, linker removed
[1] = target: GalNAc3S(b1-4)[Fuc(a1-3)]GlcNAc
Summary of the method: (§1)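 Glycan array data were curated from 3228 arrays in the Consortium for Functional Glycomics database and kept only where the protein sequence was available. Glycan names were converted to IUPAC-condensed notation, and columns mapping to the same glycan were averaged. The binding signal is a within-array Z-score, averaged across arrays of the same protein sequence at different concentrations or buffers and across linkers. Negative Z-scores can be read as non-binding.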

GalNAc4S6S(b1-4)GlcNAc = target: GalNAc4S6S(b1-4)GlcNAc
Summary of the method: as §1

GalNAc6S(b1-4)GlcNAc = target: GalNAc6S(b1-4)GlcNAc
Summary of the method: as §1

Glc(a1-4)Glc = target: Glc(a1-4)Glc
Summary of the method: as §1

[2] = target: Glc(a1-4)Glc(a1-4)Glc(a1-4)Glc
Summary of the method: as §1

Glc(a1-6)Glc(a1-6)Glc = target: Glc(a1-6)Glc(a1-6)Glc
Summary of the method: as §1

[3] = target: Glc(a1-6)Glc(a1-6)Glc(a1-6)Glc
Summary of the method: as §1

Glc(b1-4)Glc = target: Glc(b1-4)Glc
Summary of the method: as §1

Glc(b1-6)Glc = target: Glc(b1-6)Glc
Summary of the method: as §1

GlcA(b1-3)Gal = target: GlcA(b1-3)Gal
Summary of the method: as §1

GlcA(b1-3)GlcNAc = target: GlcA(b1-3)GlcNAc
Summary of the method: as §1

GlcA(b1-6)Gal = target: GlcA(b1-6)Gal
Summary of the method: as §1

[4] = target: GlcA3S(b1-3)Gal(b1-4)GlcNAc(b1-2)Man
Summary of the method: as §1

[5] = target: GlcA3S(b1-3)Gal(b1-4)GlcNAc(b1-3)Gal(b1-4)Glc
Summary of the method: as §1

[6] = target: GlcNAc(a1-3)Gal(b1-4)GlcNAc
Summary of the method: as §1

[7] = target: GlcNAc(a1-4)Gal(b1-3)GlcNAc
Summary of the method: as §1

[8] = target: GlcNAc(a1-4)Gal(b1-4)GalNAc
Summary of the method: as §1

[9] = target: GlcNAc(a1-4)Gal(b1-4)GlcNAc
Summary of the method: as §1

[10] = target: GlcNAc(a1-4)Gal(b1-4)GlcNAc(b1-3)Gal(b1-4)Glc
Summary of the method: as §1

[11] = target: GlcNAc(a1-4)Gal(b1-4)GlcNAc(b1-3)Gal(b1-4)GlcNAc
Summary of the method: as §1

[12] = target: GlcNAc(a1-4)Gal(b1-4)GlcNAc(b1-3)Gal(b1-4)GlcNAc(b1-3)Gal(b1-4)GlcNAc
Summary of the method: as §1

[13] = target: GlcNAc(a1-4)Gal(b1-4)GlcNAc(b1-3)Gal(b1-4)[Fuc(a1-3)]GlcNAc(b1-3)Gal(b1-4)[Fuc(a1-3)]GlcNAc
Summary of the method: as §1

[14] = target: GlcNAc(a1-6)Gal(b1-4)GlcNAc
Summary of the method: as §1

[15] = target: GlcNAc(b1-2)Gal(b1-3)GalNAc
Summary of the method: as §1

[16] = target: GlcNAc(b1-2)Man(a1-3)[GlcNAc(b1-2)Man(a1-6)]Man(b1-4)GlcNAc(b1-4)GlcNAc
Summary of the method: as §1

[17] = target: GlcNAc(b1-2)Man(a1-3)[GlcNAc(b1-2)Man(a1-6)]Man(b1-4)GlcNAc(b1-4)[Fuc(a1-6)]GlcNAc
Summary of the method: as §1

[18] = target: GlcNAc(b1-2)Man(a1-3)[GlcNAc(b1-4)][GlcNAc(b1-2)Man(a1-6)]Man(b1-4)GlcNAc(b1-4)GlcNAc
Summary of the method: as §1

[19] = target: GlcNAc(b1-2)Man(a1-3)[GlcNAc(b1-4)][GlcNAc(b1-2)Man(a1-6)]Man(b1-4)GlcNAc(b1-4)[Fuc(a1-6)]GlcNAc
Summary of the method: as §1

[20] = target: GlcNAc(b1-2)[GlcNAc(b1-4)]Man(a1-3)[GlcNAc(b1-2)Man(a1-6)]Man(b1-4)GlcNAc(b1-4)GlcNAc
Summary of the method: as §1

[21] = target: GlcNAc(b1-2)[GlcNAc(b1-4)]Man(a1-3)[GlcNAc(b1-4)][GlcNAc(b1-2)Man(a1-6)]Man(b1-4)GlcNAc(b1-4)GlcNAc
Summary of the method: as §1

[22] = target: GlcNAc(b1-2)[GlcNAc(b1-4)]Man(a1-3)[GlcNAc(b1-4)][GlcNAc(b1-2)[GlcNAc(b1-6)]Man(a1-6)]Man(b1-4)GlcNAc(b1-4)GlcNAc
Summary of the method: as §1

[23] = target: GlcNAc(b1-2)[GlcNAc(b1-4)]Man(a1-3)[GlcNAc(b1-4)][GlcNAc(b1-2)[GlcNAc(b1-6)]Man(a1-6)]Man(b1-4)GlcNAc(b1-4)[Fuc(a1-6)]GlcNAc
Summary of the method: as §1

[24] = target: GlcNAc(b1-2)[GlcNAc(b1-6)]Man(a1-6)[GlcNAc(b1-2)Man(a1-3)]Man(b1-4)GlcNAc(b1-4)GlcNAc
Summary of the method: as §1

[25] = target: GlcNAc(b1-2)[GlcNAc(b1-6)]Man(a1-6)[GlcNAc(b1-2)Man(a1-3)]Man(b1-4)GlcNAc(b1-4)[Fuc(a1-6)]GlcNAc
Summary of the method: as §1

[26] = target: GlcNAc(b1-2)[GlcNAc(b1-6)]Man(a1-6)[GlcNAc(b1-4)][GlcNAc(b1-2)Man(a1-3)]Man(b1-4)GlcNAc(b1-4)GlcNAc
Summary of the method: as §1

GlcNAc(b1-3)Fuc = target: GlcNAc(b1-3)Fuc
Summary of the method: as §1

GlcNAc(b1-3)Gal = target: GlcNAc(b1-3)Gal
Summary of the method: as §1

[27] = target: GlcNAc(b1-3)Gal(b1-3)GalNAc
Summary of the method: as §1

B1: PX14343E-bfa-545-24-545 (Bacteroides fragilis) (protein)
chain: LDRYPQEELSDGSFWKTPDDANKVVSDLYGYLSTWDQDNDINSDNATMGIKWAAGNVSKGIYDPADQGWSGDYANVRQCNLILSKIDEIPDYPEADKTKALGQVYFFRAYIYFNLIRSFGDVPYIDKPLDLKDMEGITRMPRAEVYEKIMADFDKAIAALPTEWGASDYGRVTKGAAMAMKARAALYYGNWDTAATEAKNVMDLGLYELYDKDNTGKYAELFWEKADGCDEFILVTQFNYPDKTHYLMGWECFPTKGWGGMNPTQSLVDAFEDSEGAPISKSKIYDPTDPFKNRDPRLEVDILHDGEEMYGVTIKVAPLASSGSTGINQHNDATETGYYGQKWLDPSLDPLSDGWNMGKDWVHIRYAEVLLTYAEAKNELQGLDPEAFDAVNQVRRRVGMPELQNTDPSKPTYCATQDDLRQRIRNEWRVEFCLEGGKRMWDIRRWGIAKDVLNAPFEGLKYKIVDNPNDPDKKVDGGKMCILYQGDPIILSGSRYSDNNYLFPVPQSEIDLNPALTQNPGY
[1]
  glycan array binding signal (z-score): -0.057
GalNAc4S6S(b1-4)GlcNAc
  glycan array binding signal (z-score): -0.119
GalNAc6S(b1-4)GlcNAc
  glycan array binding signal (z-score): -0.18
Glc(a1-4)Glc
  glycan array binding signal (z-score): -0.039
[2]
  glycan array binding signal (z-score): 1.57
Glc(a1-6)Glc(a1-6)Glc
  glycan array binding signal (z-score): -0.543
[3]
  glycan array binding signal (z-score): -0.196
Glc(b1-4)Glc
  glycan array binding signal (z-score): 0.195
Glc(b1-6)Glc
  glycan array binding signal (z-score): -0.742
GlcA(b1-3)Gal
  glycan array binding signal (z-score): -0.027
GlcA(b1-3)GlcNAc
  glycan array binding signal (z-score): -0.841
GlcA(b1-6)Gal
  glycan array binding signal (z-score): -1.16
[4]
  glycan array binding signal (z-score): -0.441
[5]
  glycan array binding signal (z-score): 0.847
[6]
  glycan array binding signal (z-score): -0.454
[7]
  glycan array binding signal (z-score): -0.321
[8]
  glycan array binding signal (z-score): 0.655
[9]
  glycan array binding signal (z-score): -0.84
[10]
  glycan array binding signal (z-score): -0.243
[11]
  glycan array binding signal (z-score): 0.54
[12]
  glycan array binding signal (z-score): -0.242
[13]
  glycan array binding signal (z-score): 8.96
[14]
  glycan array binding signal (z-score): -0.692
[15]
  glycan array binding signal (z-score): -0.499
[16]
  glycan array binding signal (z-score): -0.7
[17]
  glycan array binding signal (z-score): -0.895
[18]
  glycan array binding signal (z-score): -0.413
[19]
  glycan array binding signal (z-score): -0.597
[20]
  glycan array binding signal (z-score): 0.572
[21]
  glycan array binding signal (z-score): -0.002
[22]
  glycan array binding signal (z-score): -0.181
[23]
  glycan array binding signal (z-score): -0.534
[24]
  glycan array binding signal (z-score): -0.172
[25]
  glycan array binding signal (z-score): -0.15
[26]
  glycan array binding signal (z-score): -0.402
GlcNAc(b1-3)Fuc
  glycan array binding signal (z-score): -0.635
GlcNAc(b1-3)Gal
  glycan array binding signal (z-score): 0.401
[27]
  glycan array binding signal (z-score): 0.128
